Test results from paper PMC4466507 (PLoS ONE, 2015).

Assay: peptide made by a vendor
Settings: whole synthesis, LC-MS

Substance	purity (crude or final not stated) [%]
CPQ2-GGSGGS-K(5FAM)-KK-NH2	95.1
CPQ2-IVYELQGP-K(5FAM)-KK-NH2	96.7
